Measured values from patent US11680085B2 (VIROMETIX AG, priority 2017, dated 2023).

Test: general procedure: Fmoc solid-phase peptide synthesis; Tentagel R Ram resin; PyBOP (for 3-maleimido-propionic acid)
Conditions: whole synthesis, analytical RP-HPLC; analytical UPLC for conjugates, scale 0.5 mmol

With NSELLSLIND-Nle-PITNDQKKL-Nle-SNNVQSVRa the “final HPLC purity” value was 80.9%.
